The text below walks through data of article PMC12149670.

Sequences of proteins named here, by UniProt entry; tags and fusion partners are left off.
UniProt P05627: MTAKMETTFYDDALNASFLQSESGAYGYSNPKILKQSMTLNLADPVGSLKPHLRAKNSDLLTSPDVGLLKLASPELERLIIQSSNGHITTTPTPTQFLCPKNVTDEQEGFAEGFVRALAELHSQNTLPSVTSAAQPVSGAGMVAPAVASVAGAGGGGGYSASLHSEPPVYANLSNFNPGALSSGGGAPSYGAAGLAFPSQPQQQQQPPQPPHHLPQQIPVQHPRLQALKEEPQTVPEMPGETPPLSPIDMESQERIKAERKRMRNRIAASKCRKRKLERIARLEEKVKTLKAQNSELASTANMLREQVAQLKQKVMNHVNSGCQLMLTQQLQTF
UniProt Q04207: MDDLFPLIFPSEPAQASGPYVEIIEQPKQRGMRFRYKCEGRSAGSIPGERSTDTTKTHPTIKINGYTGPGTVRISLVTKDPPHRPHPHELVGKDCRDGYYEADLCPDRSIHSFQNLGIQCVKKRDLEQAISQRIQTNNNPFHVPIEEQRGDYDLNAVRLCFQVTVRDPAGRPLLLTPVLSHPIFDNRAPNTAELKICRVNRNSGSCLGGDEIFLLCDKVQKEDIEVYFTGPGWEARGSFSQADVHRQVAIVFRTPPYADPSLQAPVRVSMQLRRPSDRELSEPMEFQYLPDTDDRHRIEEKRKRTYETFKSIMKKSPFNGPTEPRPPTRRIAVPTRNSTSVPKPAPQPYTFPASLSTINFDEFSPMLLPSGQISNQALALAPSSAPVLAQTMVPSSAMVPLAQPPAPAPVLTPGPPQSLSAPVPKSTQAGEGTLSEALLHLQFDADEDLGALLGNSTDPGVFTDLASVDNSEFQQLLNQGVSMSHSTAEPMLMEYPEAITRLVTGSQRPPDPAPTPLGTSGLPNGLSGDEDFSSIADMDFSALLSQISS

Results are given in words; binding and its absence hold for the method and conditions named. Binding seen in cells or lysates may run through a third protein. Some results given as binding are weak or reduced against the parent protein; the word gives no strength. Where a sequence is shown, tags or fusion partners need not be part of it.

Test [1] addresses CTBP2-Halo-tag (CTBP2 wt-Halo-tag) (human) (UniProt P56545). Briefly: FRET or BRET; NanoBRET in living LPS-treated (100 ng/ml, 6 h) J774.1 Ctbp dKO cells: Nano-luciferase fusion as donor, CTBP2-Halo-tag with Halo-ligand 618 as acceptor; milliBRET units, wells without ligand subtracted. (In BRET a luciferase serves as donor, and the signal depends on an acceptor being close.)
The target in test [2] is CTBP2 mono-Halo-tag (human) (UniProt P56545). The description is as above.

Turning to “Nano-luciferase–labeled JUN (from UniProt P05627 1-334)”, the binding entry in test [1] was “binds”.

As for “Nano-luciferase–labeled RELA (from UniProt Q04207 1-549)”, the binding entry in test [1] is on record as “binds”.

B1: Nano-luciferase–labeled JUNB (protein, UniProt P09450 1-344)
chain: MCTKMEQPFYHDDSYAAAGYGRSPGSLSLHDYKLLKPTLALNLADPYRGLKGPGARGPGPEGSGAGSYFSGQGSDTGASLKLASTELERLIVPNSNGVITTTPTPPGQYFYPRGGGSGGGTGGGVTEEQEGFADGFVKALDDLHKMNHVTPPNVSLGASGGPQAGPGGVYAGPEPPPVYTNLSSYSPASAPSGGSGTAVGTGSSYPTATISYLPHAPPFAGGHPAQLGLSRGASAFKEEPQTVPEARSRDATPPVSPINMEDQERIKVERKRLRNRLAATKCRKRKLERIARLEDKVKTLKAENAGLSSAAGLLREQVAQLKQKVMTHVSNGCQLLLGVKGHAF
B1: the binding result in test [2] and in test [1] was “binds” in each case.
